# Test results from PMC7819943, “Rice protein-binding microarrays: a tool to detect cis-acting elements near promoter regions in rice”.
# The chains behind the UniProt entries cited, without tags or fusion partners.
# UniProt Q0JBA9, entry or part of it: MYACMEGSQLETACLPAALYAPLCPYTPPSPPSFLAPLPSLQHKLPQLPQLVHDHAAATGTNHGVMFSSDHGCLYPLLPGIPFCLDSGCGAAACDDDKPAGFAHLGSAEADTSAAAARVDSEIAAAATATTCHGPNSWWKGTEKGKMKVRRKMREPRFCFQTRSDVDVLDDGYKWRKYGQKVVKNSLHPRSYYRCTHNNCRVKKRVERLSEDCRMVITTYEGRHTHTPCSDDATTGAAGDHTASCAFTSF
# The list shows a part of the results.
# Target: OsWRKY34 (Oryza sativa, UniProt Q0JBA9 1-250)
# Test: protein-binding microarray (RPBM); PBS, 2% BSA, 51.3 ng/ul salmon testes DNA, 50 uM zinc acetate, 200 nM TF, 25 C, 1 h; high values mean tight binding
# Details: protein: recombinant; tags: N-terminal polyhistidine and DsRed monomer fusion (pET32a); label: CyDye5-dUTP incorporated in the synthesized complementary strand; 3' TTTTT single-stranded linker to array surface; dsDNA, one strand shown
# Summary of the method: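 Per-feature fluorescence intensity (arbitrary units), read on an Axon 4000B scanner, is the binding signal. Transcription factors carrying an N-terminal polyhistidine tag and DsRed fusion were expressed in E. coli BL21-CodonPlus and purified on Ni–NTA. A custom Agilent array, made double-stranded by primer extension with Cy5-dUTP and blocked with 2% BSA, was incubated with 200 nM protein in PBS, 2% BSA, salmon testes DNA and 50 µM zinc acetate at 25 °C for 1 h and then washed.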
row,Sequence,binding signal
1,CACCCATCGCCGACGACCCACGCACGCAGTCCACCAACGCCGGAGTCACCTAGTGCAG,8130 fluorescence intensity (a.u.)
2,AGCGCACATATATATATTTTTTACTCTCTTTAGTCACAAACGGAGTCACCTAGTGCAG,9240 fluorescence intensity (a.u.)
3,TGGATGGATATACTCGCTCTCGACCGCGCGCCAAAAAAAACGGAGTCACCTAGTGCAG,8300 fluorescence intensity (a.u.)
4,ATTTGATGAATCTGTATATTAAATTGTCAATTTGTGTACCCGGAGTCACCTAGTGCAG,8550 fluorescence intensity (a.u.)
5,AAACCAGTACAACTGCCATTCTTTACCGTTCCCTTTGCCCCGGAGTCACCTAGTGCAG,9420 fluorescence intensity (a.u.)
6,CTTCTTCTTGTCCTGCGCAACCGATGGGCGGGTTCTTGATCGGAGTCACCTAGTGCAG,18800 fluorescence intensity (a.u.)
7,ACACATCCCTCCGGCATAATTCATTTTTTCCTTTACTATTCGGAGTCACCTAGTGCAG,9620 fluorescence intensity (a.u.)
8,AACCCTGGATTTCAGTGTCCAACGTTTAACCGTCCATCTTCGGAGTCACCTAGTGCAG,9390 fluorescence intensity (a.u.)
9,GCCGCTGCCGGCCGCCGACCGCCGACCGCCGGTGCGCACCCGGAGTCACCTAGTGCAG,8770 fluorescence intensity (a.u.)
10,TATCATGCACTCCTTTTTTTTCTCTTTTTTTGCAAAACCTCGGAGTCACCTAGTGCAG,8180 fluorescence intensity (a.u.)
11,ACATACTCACGCTTGCCCGGGAACCTCTCGTAGCCTCACACGGAGTCACCTAGTGCAG,11100 fluorescence intensity (a.u.)
12,TTGTAGATTGTTTAGGGATTGTTGTGTTGTTGTTCATTATCGGAGTCACCTAGTGCAG,8100 fluorescence intensity (a.u.)
13,ACGAACGTGATGCTTTTTTTTCGAGCAGTTTTAATAATATCGGAGTCACCTAGTGCAG,8500 fluorescence intensity (a.u.)
14,CTTCTCCTAACCTCCTTTGATCGTTCGTTGGTTTGTTTTTCGGAGTCACCTAGTGCAG,13300 fluorescence intensity (a.u.)
15,TTATTGCTCGTGCATGCCTCGGTTGGTCCGACATTTTCATCGGAGTCACCTAGTGCAG,9530 fluorescence intensity (a.u.)
16,CCATCAAATAATCATCTTTAGTGAGTTACCTTTTGCTTTCCGGAGTCACCTAGTGCAG,8970 fluorescence intensity (a.u.)
17,GGTTTTGATAGTTGAGGGATATGTTGTGTCCGGTTTTCTACGGAGTCACCTAGTGCAG,10500 fluorescence intensity (a.u.)
18,AGTCGCCTCCTCGCACCTACTACCCTACTAGGTCATGCCACGGAGTCACCTAGTGCAG,8660 fluorescence intensity (a.u.)
19,TGAGTTTTTGATTGCAACGTTTGACCACTCGTTTTATTCACGGAGTCACCTAGTGCAG,12800 fluorescence intensity (a.u.)
20,CACTCCGGTCGTCTTCCTCGTGACCTCGTCAAGTCCTCAGCGGAGTCACCTAGTGCAG,8480 fluorescence intensity (a.u.)
21,TTAATCGGTGTTGCGCCAGAGGCCGCGTCTTGAGCTTGCTCGGAGTCACCTAGTGCAG,8940 fluorescence intensity (a.u.)
22,ATCGATGATGCATTCCTTTCTTTTCTGACAGTAGTGATATCGGAGTCACCTAGTGCAG,9550 fluorescence intensity (a.u.)
23,CACTCATAGATATGCTTCTCTCACAGGTCTATATATTGGCCGGAGTCACCTAGTGCAG,8450 fluorescence intensity (a.u.)
24,TTGGCTCGAGGCGGGGCTGGTTGGTTGGTTGGTTTGGTGGCGGAGTCACCTAGTGCAG,14600 fluorescence intensity (a.u.)
25,AACCTTGCTTTTGGCTGTGTTTAGTTCCACCGATAAAAAACGGAGTCACCTAGTGCAG,8250 fluorescence intensity (a.u.)
26,TTGTCGTTGTTGTTCATGCCATTTTTCTGAAGTGAAAGATCGGAGTCACCTAGTGCAG,9670 fluorescence intensity (a.u.)
27,AATAAGACGAACGGTCAAATATATTTAAAAAAGTCAACGGCGGAGTCACCTAGTGCAG,10500 fluorescence intensity (a.u.)

# Rewritten with bars between the fields: entries from further up
row | Sequence | binding signal
6 | CTTCTTCTTGTCCTGCGCAACCGATGGGCGGGTTCTTGATCGGAGTCACCTAGTGCAG | 18800 fluorescence intensity (a.u.)
7 | ACACATCCCTCCGGCATAATTCATTTTTTCCTTTACTATTCGGAGTCACCTAGTGCAG | 9620 fluorescence intensity (a.u.)
8 | AACCCTGGATTTCAGTGTCCAACGTTTAACCGTCCATCTTCGGAGTCACCTAGTGCAG | 9390 fluorescence intensity (a.u.)
9 | GCCGCTGCCGGCCGCCGACCGCCGACCGCCGGTGCGCACCCGGAGTCACCTAGTGCAG | 8770 fluorescence intensity (a.u.)
10 | TATCATGCACTCCTTTTTTTTCTCTTTTTTTGCAAAACCTCGGAGTCACCTAGTGCAG | 8180 fluorescence intensity (a.u.)
11 | ACATACTCACGCTTGCCCGGGAACCTCTCGTAGCCTCACACGGAGTCACCTAGTGCAG | 11100 fluorescence intensity (a.u.)
12 | TTGTAGATTGTTTAGGGATTGTTGTGTTGTTGTTCATTATCGGAGTCACCTAGTGCAG | 8100 fluorescence intensity (a.u.)
13 | ACGAACGTGATGCTTTTTTTTCGAGCAGTTTTAATAATATCGGAGTCACCTAGTGCAG | 8500 fluorescence intensity (a.u.)
14 | CTTCTCCTAACCTCCTTTGATCGTTCGTTGGTTTGTTTTTCGGAGTCACCTAGTGCAG | 13300 fluorescence intensity (a.u.)
15 | TTATTGCTCGTGCATGCCTCGGTTGGTCCGACATTTTCATCGGAGTCACCTAGTGCAG | 9530 fluorescence intensity (a.u.)
16 | CCATCAAATAATCATCTTTAGTGAGTTACCTTTTGCTTTCCGGAGTCACCTAGTGCAG | 8970 fluorescence intensity (a.u.)
17 | GGTTTTGATAGTTGAGGGATATGTTGTGTCCGGTTTTCTACGGAGTCACCTAGTGCAG | 10500 fluorescence intensity (a.u.)
18 | AGTCGCCTCCTCGCACCTACTACCCTACTAGGTCATGCCACGGAGTCACCTAGTGCAG | 8660 fluorescence intensity (a.u.)
19 | TGAGTTTTTGATTGCAACGTTTGACCACTCGTTTTATTCACGGAGTCACCTAGTGCAG | 12800 fluorescence intensity (a.u.)

# The list goes on.

row,Sequence,binding signal
1,GTTGTTAATGTACATCCATCATGATTTCCAATTCAGTTTCCGGAGTCACCTAGTGCAG,9050 fluorescence intensity (a.u.)
2,GGTCGATTACTTCTAGTTTGTATTCTAGTGTAATTATTTCCGGAGTCACCTAGTGCAG,9250 fluorescence intensity (a.u.)
3,ATCTAGCAGACTTTGGCTATGTACTAAACTCATTTTTTTTCGGAGTCACCTAGTGCAG,9140 fluorescence intensity (a.u.)
4,TAAAACTACTCATTTTGGGCCCTGTTTCATCGTTTCTTCTCGGAGTCACCTAGTGCAG,11200 fluorescence intensity (a.u.)
5,GTTGACTTTTTAGCACGTGTTTGACCGTTCGTCTTATTAACGGAGTCACCTAGTGCAG,9780 fluorescence intensity (a.u.)
6,CAGCCCATTTCAGTCCATTTCCTCTCTCTCTCTCTCTCTCCGGAGTCACCTAGTGCAG,8780 fluorescence intensity (a.u.)
7,ATGGTGGTTGTGTCTTATATTTTGGAATGGAGGGACTTATCGGAGTCACCTAGTGCAG,10500 fluorescence intensity (a.u.)
8,AATATATTTTATCTAATTTCACGGTATATGTACCTGTCATCGGAGTCACCTAGTGCAG,8560 fluorescence intensity (a.u.)
9,TGCCGCTCTACCGTCTTCTCGTCTCACGCGACGTGTCGTACGGAGTCACCTAGTGCAG,8970 fluorescence intensity (a.u.)
10,TTTACACGTAATCTGTGTAATTGGTTTTTTCGCCTACATTCGGAGTCACCTAGTGCAG,10200 fluorescence intensity (a.u.)
11,GATGTTTCCGGCTGGGGTTCTTGAGGCGTTTTGAAGAGGACGGAGTCACCTAGTGCAG,10200 fluorescence intensity (a.u.)
12,CACCATTCGAAACACCCTCTTTTCTATTCTCGCTTAGCTACGGAGTCACCTAGTGCAG,8230 fluorescence intensity (a.u.)
13,GGTTCGCTCTCTCCGTCTCTCTGCTATGCCCCTCTCTTTCCGGAGTCACCTAGTGCAG,11500 fluorescence intensity (a.u.)
14,TACCGTAAAGTTCTCTCTCTCTTTTTATATTGCATGACCACGGAGTCACCTAGTGCAG,9710 fluorescence intensity (a.u.)
15,CATTTTCTCGTAAGTGTACCTTTCATTTTTTTTATGCTCACGGAGTCACCTAGTGCAG,8610 fluorescence intensity (a.u.)
16,AAGGATATAGTTTGCATTGGTTTTGATAGTTGGAGGAGTCCGGAGTCACCTAGTGCAG,9850 fluorescence intensity (a.u.)
17,TATATGCCATTGATCCAAATTTGCACACCCTCTCATGCCACGGAGTCACCTAGTGCAG,11800 fluorescence intensity (a.u.)
18,GCAAACGATATCCATCGCACTACTCGTCTCGTCTACTCCTCGGAGTCACCTAGTGCAG,8200 fluorescence intensity (a.u.)
19,TTGTACAAGTATCAGCTGAGCTCCTCGTCCTCGTCTTCTTCGGAGTCACCTAGTGCAG,8510 fluorescence intensity (a.u.)
20,TCAGTGTGTGTGTGTCGTGCTGCTGCATGTGTGCGTCGTACGGAGTCACCTAGTGCAG,9890 fluorescence intensity (a.u.)
21,TTCCATACCATATGTACCTTCCAACATTTTGTTCTATCCACGGAGTCACCTAGTGCAG,10600 fluorescence intensity (a.u.)
22,CCTCTCTCTGCTCTCGCCTTCTTACCATCTCACATTCCTTCGGAGTCACCTAGTGCAG,10700 fluorescence intensity (a.u.)
23,CGTGCACATCCTCGTCAGCTTCGTCGTCCACCACCGTCGACGGAGTCACCTAGTGCAG,12000 fluorescence intensity (a.u.)
24,ATGCAGCCTCGACGCTTACTGTCACCACGATCGCATTCACCGGAGTCACCTAGTGCAG,11200 fluorescence intensity (a.u.)
25,CGACCGACCCTCGCCCGCCCACCGCCGTCACTCTCGTCTGCGGAGTCACCTAGTGCAG,10300 fluorescence intensity (a.u.)
26,GTGATGCTCTTAATCCTAGGCGCTGTTTAGTTTGTTCGACCGGAGTCACCTAGTGCAG,15600 fluorescence intensity (a.u.)
27,TACTTATCTACTGTTTTATCCCTTTTTGTTTCTGTTTCTTCGGAGTCACCTAGTGCAG,13400 fluorescence intensity (a.u.)
